According to patent publication US20160022642A1, “Compounds Useful for Promoting Protein Degradation and Methods Using Same” (Yale University, priority 2014, published 2016):
“Also recorded” adds a separate entry of the source. At least one compound was matched to its structure with a doubt left.

What was measured:
Assay type in all cases: cell-based
androgen receptor (AR) = biological target: T1, androgen receptor (AR) (Homo sapiens, UniProt P10275, T878A); assay: SARD-mediated AR degradation, western blot in LNCaP cells; conditions: 24 hours
T1 construct: endogenous in cells; host or cells: LNCaP
T1 sequence (P10275 1-920 T878A): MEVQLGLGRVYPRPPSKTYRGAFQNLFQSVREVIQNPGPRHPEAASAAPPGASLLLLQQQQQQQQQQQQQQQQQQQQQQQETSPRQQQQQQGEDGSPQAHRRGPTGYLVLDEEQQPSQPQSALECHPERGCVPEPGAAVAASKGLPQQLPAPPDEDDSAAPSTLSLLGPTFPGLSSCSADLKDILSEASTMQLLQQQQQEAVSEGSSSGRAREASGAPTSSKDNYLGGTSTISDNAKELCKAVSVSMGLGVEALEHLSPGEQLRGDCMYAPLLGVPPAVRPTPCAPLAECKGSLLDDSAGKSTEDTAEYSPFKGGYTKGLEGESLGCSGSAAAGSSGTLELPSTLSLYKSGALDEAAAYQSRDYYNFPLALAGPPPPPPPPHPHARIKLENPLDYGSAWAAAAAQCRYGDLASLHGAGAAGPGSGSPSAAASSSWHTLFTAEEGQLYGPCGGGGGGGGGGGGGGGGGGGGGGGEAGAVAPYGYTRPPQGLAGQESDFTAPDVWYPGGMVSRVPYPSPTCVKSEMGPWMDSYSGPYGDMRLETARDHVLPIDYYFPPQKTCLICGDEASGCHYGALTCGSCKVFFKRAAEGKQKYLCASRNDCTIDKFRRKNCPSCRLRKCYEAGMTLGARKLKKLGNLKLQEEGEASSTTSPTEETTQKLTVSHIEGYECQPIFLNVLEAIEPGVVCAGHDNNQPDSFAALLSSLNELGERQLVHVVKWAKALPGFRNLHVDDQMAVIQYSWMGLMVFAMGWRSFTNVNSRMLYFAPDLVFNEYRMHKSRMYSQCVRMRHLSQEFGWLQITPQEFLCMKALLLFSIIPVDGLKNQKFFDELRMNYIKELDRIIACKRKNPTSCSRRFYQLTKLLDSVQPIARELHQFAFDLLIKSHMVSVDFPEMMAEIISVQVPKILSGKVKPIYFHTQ
Experimental: FIG. 15A illustrates representative western blots of SARD mediated AR degradation. FIG. 15B is a graph illustrating the percentage of remaining AR as a function of SARD compound concentration.
FIGS. 32A-32B show a series of representative western blots of SARD-mediated AR degradation according to the present description. LNCaP cells were treated with indicated compounds for 24 hours and SARD 279 and RU59063 were used at 2.5 μM and 25 μM, respectively (FIG. 32A).
LNCaP and PC3 cells were obtained from ATCC. LNCaP/AR-876L and LNCaP/AR cells were generated by infecting LNCaP cells with the 876L or WT, respectively, AR. All cells were grown at 37° C. in RPMI and supplemented with 10% FBS, 100 U/ml carbenicillin and 100 μg/ml streptomycin. AR (5153) and Hsp70 (4872) antibodies were obtained from Cell Signaling. β-actin antibody (AC-74) was purchased from Sigma. Geldanamycin was purchased from Invivogen. The indicated cells were washed twice with cold PBS, and the cells were lysed in lysis buffer (1×PBS, 1% NP-40, 1 mM EDTA, 40 mM HEPES) with protease inhibitors. […] The total protein concentration was determined by Bradford assay, and 10 μg of protein was loaded onto an 8% Bis-Tris gel. The blots were processed by standard procedures with the indicated antibodies, and the band intensities were quantified by ImageJ (US National Institutes of Health).

LnCAP cells [1] = assay: LNCaP cell proliferation assay in the presence of 1 nM R1881 (CellTiterGlo); conditions: 5% charcoal stripped serum, 7 days
Experimental: (§1) LNCaP-AR cells were treated with hormone for 18 hours as indicated and then, RNA was isolated and FKBP52 expression was assessed by qPCR. GAPDH was used to normalize expression. Error represents standard deviation (Panel A). LNCaP cell proliferation assay in the presence of indicated compounds at 3 μM and then, the assay was performed in 10% FBS, and only viable cells were counted at each indicated day (Panel B). […] LNCaP/AR-F876L cells were treated with indicated compounds for 24 hours in 5% charcoal stripped FBS, and then, mRNA was prepared and the relative PSA mRNA was determined by qPCR (Panel D).
For FIG. 33, panel C, the LNCaP cells were washed with PBS, seeded at 5,000 cells per well in a 96-well plate in 5% Charcoal Stripped Serum (Omega) in phenol-red free RPMI media (Invitrogen). […] Baseline CellTiterGlo (Promega) reading was taken immediately after addition of compounds and 7 days later. The data are plotted so that the Y axis reflects the degree of proliferation at Day 7, compared to Day 0.

[2] = test system: AR target genes (FKBP52, PMPEA 1, NKX3.1) in LNCaP-AR cells; assay: AR-dependent gene expression by qPCR in LNCaP-AR cells; conditions: 18 hours
Experimental: as §1
FIGS. 34A-34B are a series of graphs illustrating relative pMPEA1 mRNA levels (FIG. 34A) or relative NKX3.1 mRNA levels (FIG. 34B) after treated with SARDS compounds according to the present description. LNCaP-AR cells were treated with hormone for 18 hours and subsequently, mRNA was isolated and FKBP52 expression was assessed by qPCR. GAPDH was used to normalize expression. Error represents standard deviation.
The effects of the SARDS in the present description on AR-dependent gene expression in AR overexpressing LNCaP-AR cells, a validated cellular model of CRPC were examined. LNCaP-AR cells were treated with hormone for 18 hours as indicated. RNA was isolated and FKBP52 expression was assessed by QPCR. GAPDH was used to normalize expression. Error represents standard deviation.

22RV1 cell line = assay: Proliferation of the androgen independent 22RV1 cell line (CRPC model); conditions: 22RV1, 1 μM, after four days
LNCaP/AR-F876L cells = assay: Proliferation of LNCaP/AR-F876L cells (CellTiterGlo); conditions: 7 days, 5% charcoal stripped FBS, no R1881
[3] = test system: PC3 human prostate cancer cell line; assay: Cell proliferation assay with AR-negative PC-3 prostate cancer cells (CellTiterGlo); conditions: 5% charcoal stripped FBS
Experimental: (§2) FIGS. 35A-35B are a series of graphs illustrating results of cell proliferation assay. Cell proliferation assay was performed with AR-negative PC-3 prostate cancer cells (FIG. 35A). Indicated compounds at shown doses were added to previously plated PC-3 cells in phenol-red free RPMI, supplemented with 5% charcoal stripped FBS. CellTiterGlo readings were taken at indicated days and the data are plotted as a % of proliferation from Day 0. Cell proliferation assay was performed with HEK293 cells (FIG. 35B), which were plated at 2,000 cells/well in a 6-well plate and dosed with indicated compounds at 3 μM.

HEK 293T = assay: Cell proliferation assay with HEK 293T cells; conditions: 3 μM
Experimental: as §2

LnCAP cells [4] = assay: Proliferation of androgen-dependent LnCAP cells
Experimental: as §1
For FIG. 33, panel B, 2,000 cells in RPMI media, supplemented with 10% FBS, 100 U/ml carbenicillin and 100 μg/ml streptomycin, were plated into each well in a 6-well plate. Two days after plating, the cells were treated with indicated compounds. The number of cells in each well was counted with a hemocytometer using Trypan blue to distinguish viable cells.

## CC1(C)C(=O)N(c2ccc(C#N)c(C(F)(F)F)c2)C(=S)N1CCCC(=O)NCCOCCOC(=O)CC12CC3CC(CC(C3)C1)C2 [SARD 279, 2-(2-(4-(3-(4-Cyano-3-(trifluoromethyl)phenyl)-5,5-dimethyl-4-oxo-2-thioxoimidazolidin-1-yl)butanamido)ethoxy)ethyl 2-(adamantan-1-yl)acetate]
Androgen receptor (AR); SARD 279 2.5 μM, RU59063 25 μM
  AR degradation by SARD 279 on co-incubation with RU59063: co-incubation with the competitive AR agonist RU59063 blocked the activity of SARD 279
Androgen receptor (AR); geldanamycin at concentrations that did not affect AR levels
  AR degradation in combination with the Hsp90 inhibitor geldanamycin: could enhance AR degradation by sub-DC50 concentrations of SARD 279
LnCAP cells [1]
  Antiproliferative activity in the presence of 1 nM R1881: exhibited antiproliferative activity
[2]; qPCR
  Antagonism of gene expression induced by R1881: antagonized gene expression induced by the synthetic androgen R1881
[2]; qPCR normalized to GAPDH
  AR agonist activity: expression of AR target genes: no such agonist activity
22RV1 cell line
  Proliferation compared to vehicle-treated cells: attenuated proliferation compared to vehicle-treated cells
LNCaP/AR-F876L cells
  Proliferation of LNCaP/AR-F876L cells: exhibits antiproliferative effects
[3]
  Proliferation of PC3 cells: unaffected
HEK 293T
  Proliferation of HEK 293T cells: unaffected
LnCAP cells [4]; 1 μM, several days
  Cell growth / proliferation of LnCAP cells: significantly attenuated cell growth; also recorded: almost complete cell death
LnCAP cells [4]; 3 μM, 10% FBS, hemocytometer with Trypan blue, over 9 days
  Proliferation of LNCaP cells, viable cell count: suppressed proliferation with similar efficacy to MDV3100
